Reference: patent US20130236458A1 (AbbVie / Abbott, published 2013)
Results are given in words; binding and its absence hold for the method and conditions named. Some binding calls cover weakened binding; strength is not graded here. One block for each binder: values may come before it.

Amino acid sequences for entries named in this document (tags omitted). Residues count along the entry.
UniProt P35225, residues 35-146: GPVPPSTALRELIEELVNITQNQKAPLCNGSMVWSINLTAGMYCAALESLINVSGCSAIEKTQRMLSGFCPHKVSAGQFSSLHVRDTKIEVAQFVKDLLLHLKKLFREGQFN

Biological target: Recombinant Human IL-13 (human, UniProt P35225 35-146, limits assumed)
Assay: SPR (Biacore)
Experimental: The BIACORE assay (Biacore, Inc, Piscataway, N.J.) determined the affinity of antibodies or DVD-Ig with kinetic measurements of on-rate and off-rate constants. Binding of antibodies or DVD-Ig proteins to a target antigen (for example, a purified recombinant target antigen) was determined by surface plasmon resonance-based measurements with a Biacore®1000 or 3000 instrument (Biacore® AB, Uppsala, Sweden) using running HBS-EP (10 mM HEPES [pH 7.4], 150 mM NaCl, 3 mM EDTA, and 0.005% surfactant P20) at 25° C. All chemicals were obtained from Biacore® AB (Uppsala, Sweden) or otherwise from a different source as described in the text. For example, approximately 5000 RU of goat anti-mouse IgG, (Fcγ), fragment specific polyclonal antibody (Pierce Biotechnology Inc, Rockford, Ill.) diluted in 10 mM sodium acetate (pH 4.5) was directly immobilized across a CM5 research grade biosensor chip using a standard amine coupling kit according to manufacturer's instructions and procedures at 25 μg/ml. Unreacted moieties on the biosensor surface were blocked with ethanolamine. Modified carboxymethyl dextran surface in flowcell 2 and 4 was used as a reaction surface. Unmodified carboxymethyl dextran without goat anti-mouse IgG in flow cell 1 and 3 was used as the reference surface. For kinetic analysis, rate equations derived from the 1:1 Langmuir binding model were fitted simultaneously to association and dissociation phases of all eight injections (using global fit analysis) with the use of Biaevaluation 4.0.1 software. Purified antibodies or DVD-Ig proteins were diluted in HEPES-buffered saline for capture across goat anti-mouse IgG specific reaction surfaces. Antibodies or DVD-Ig proteins to be captured as a ligand (25 μg/ml) were injected over reaction matrices at a flow rate of 5 μl/minute. The association and dissociation rate constants, kₒₙ (M⁻¹s⁻¹) and koff (s⁻¹) were determined under a continuous flow rate of 25 μl/minute. Rate constants were derived by making kinetic binding measurements at different antigen concentrations ranging from 10-200 nM. The equilibrium dissociation constant (M) of the reaction between antibodies or DVD-Ig proteins and the target antigen was then calculated from the kinetic rate constants by the following formula: KD=koff/kₒₙ. Binding was recorded as a function of time and kinetic rate constants were calculated.

B1: DVD2172 (bispecific antibody)
VH: EVQLVQSGAEVKKPGASVKVSCKASGYTFTTYGVSWVRQAPGQGLEWMGEIYPGNYNTYYNEKFRGRVTMTTDTSTSTAYMELRSLRSDDTAVYYCARWRTSYFSDYGYFDYWGQGTTVTVSSASTKGPEVQLVQSGAEVKKPGSSVKVSCKASGGSFGGYGIGWVRQAPGQGLEWMGGITPFFGFADYAQKFQGRVTITADESTTTAYMELSGLTSDDTAVYYCARDPNEFWNGYYSTHDFDSWGQGTTVTVSS
VL: DVVMTQSPLSLPVTLGQPASISCRSSQSLVHSHGNTYLHWYQQRPGQSPRLLIYTVSNRFSGVPDRFSGSGSGTDFTLKISRVEAEDVGVYYCSQSTHVPYTFGGGTKVEIKRTVAAPEIVLTQSPDFQSVTPKEKVTITCRASQDIGSELHWYQQKPDQPPKLLIKYASHSTSGVPSRFSGSGSGTDFTLTINGLEAEDAGTYYCHQTDSLPYTFGPGTKVDIKR
notes: DVD-Ig; also called DVD2172H; DVD2172L
binding: binds

B2: DVD2174 (bispecific antibody)
VH: B1 VH
VL: DVVMTQSPLSLPVTLGQPASISCRSSQSLVHSHGNTYLHWYQQRPGQSPRLLIYTVSNRFSGVPDRFSGSGSGTDFTLKISRVEAEDVGVYYCSQSTHVPYTFGGGTKVEIKRTVAAPSVFIFPPEIVLTQSPDFQSVTPKEKVTITCRASQDIGSELHWYQQKPDQPPKLLIKYASHSTSGVPSRFSGSGSGTDFTLTINGLEAEDAGTYYCHQTDSLPYTFGPGTKVDIKR
notes: DVD-Ig; also called DVD2174H; DVD2174L
binding: binds

B3: DVD2173 (bispecific antibody)
VH: EVQLVQSGAEVKKPGSSVKVSCKASGGSFGGYGIGWVRQAPGQGLEWMGGITPFFGFADYAQKFQGRVTITADESTTTAYMELSGLTSDDTAVYYCARDPNEFWNGYYSTHDFDSWGQGTTVTVSSASTKGPEVQLVQSGAEVKKPGASVKVSCKASGYTFTTYGVSWVRQAPGQGLEWMGEIYPGNYNTYYNEKFRGRVTMTTDTSTSTAYMELRSLRSDDTAVYYCARWRTSYFSDYGYFDYWGQGTTVTVSS
VL: EIVLTQSPDFQSVTPKEKVTITCRASQDIGSELHWYQQKPDQPPKLLIKYASHSTSGVPSRFSGSGSGTDFTLTINGLEAEDAGTYYCHQTDSLPYTFGPGTKVDIKRTVAAPDVVMTQSPLSLPVTLGQPASISCRSSQSLVHSHGNTYLHWYQQRPGQSPRLLIYTVSNRFSGVPDRFSGSGSGTDFTLKISRVEAEDVGVYYCSQSTHVPYTFGGGTKVEIKR
notes: DVD-Ig; also called DVD2173H; DVD2173L
binding: binds

B4: DVD2177 (bispecific antibody)
VH: EVQLVQSGAEVKKPGSSVKVSCKASGGSFGGYGIGWVRQAPGQGLEWMGGITPFFGFADYAQKFQGRVTITADESTTTAYMELSGLTSDDTAVYYCARDPNEFWNGYYSTHDFDSWGQGTTVTVSSASTKGPSVFPLAPEVQLVQSGAEVKKPGASVKVSCKASGYTFTTYGVSWVRQAPGQGLEWMGEIYPGNYNTYYNEKFRGRVTMTTDTSTSTAYMELRSLRSDDTAVYYCARWRTSYFSDYGYFDYWGQGTTVTVSS
VL: B3 VL
notes: DVD-Ig; also called DVD2177H; DVD2177L
binding: binds

B5: DVD2175 (bispecific antibody)
VH: B3 VH
VL: EIVLTQSPDFQSVTPKEKVTITCRASQDIGSELHWYQQKPDQPPKLLIKYASHSTSGVPSRFSGSGSGTDFTLTINGLEAEDAGTYYCHQTDSLPYTFGPGTKVDIKRTVAAPSVFIFPPDVVMTQSPLSLPVTLGQPASISCRSSQSLVHSHGNTYLHWYQQRPGQSPRLLIYTVSNRFSGVPDRFSGSGSGTDFTLKISRVEAEDVGVYYCSQSTHVPYTFGGGTKVEIKR
notes: DVD-Ig; also called DVD2175H; DVD2175L
binding: binds

Second part, the binder after the results:

binding: binds
B6: DVD2190 (bispecific antibody)
VH: EVQLVQSGAEVKKPGASVKVSCKASGYTFTSYWMHWVRQAPGQGLEWIGNINPKGGSNIYNEKFQGRVTMTRDTSISTAYMELSRLRSDDTAVYYCARLDYFGDSFDLWGQGTTVTVSSASTKGPEVQLVQSGAEVKKPGSSVKVSCKASGGSFGGYGIGWVRQAPGQGLEWMGGITPFFGFADYAQKFQGRVTITADESTTTAYMELSGLTSDDTAVYYCARDPNEFWNGYYSTHDFDSWGQGTTVTVSS
VL: DIQMTQSPSSLSASVGDRVTITCRASQGIRNYLNWYQQKPGKAPKLLIYYASNLEVGVPSRFSGSGSGTDYTLTISSLQPEDFATYYCQQDNRFPYTFGGGTKVEIKRTVAAPEIVLTQSPDFQSVTPKEKVTITCRASQDIGSELHWYQQKPDQPPKLLIKYASHSTSGVPSRFSGSGSGTDFTLTINGLEAEDAGTYYCHQTDSLPYTFGPGTKVDIKR
notes: DVD-Ig; also called DVD2190H; DVD2190L

binding: binds
B7: DVD2192 (bispecific antibody)
VH: B6 VH
VL: DIQMTQSPSSLSASVGDRVTITCRASQGIRNYLNWYQQKPGKAPKLLIYYASNLEVGVPSRFSGSGSGTDYTLTISSLQPEDFATYYCQQDNRFPYTFGGGTKVEIKRTVAAPSVFIFPPEIVLTQSPDFQSVTPKEKVTITCRASQDIGSELHWYQQKPDQPPKLLIKYASHSTSGVPSRFSGSGSGTDFTLTINGLEAEDAGTYYCHQTDSLPYTFGPGTKVDIKR
notes: DVD-Ig; also called DVD2192H; DVD2192L

binding: binds
B8: DVD2191 (bispecific antibody)
VH: EVQLVQSGAEVKKPGSSVKVSCKASGGSFGGYGIGWVRQAPGQGLEWMGGITPFFGFADYAQKFQGRVTITADESTTTAYMELSGLTSDDTAVYYCARDPNEFWNGYYSTHDFDSWGQGTTVTVSSASTKGPEVQLVQSGAEVKKPGASVKVSCKASGYTFTSYWMHWVRQAPGQGLEWIGNINPKGGSNIYNEKFQGRVTMTRDTSISTAYMELSRLRSDDTAVYYCARLDYFGDSFDLWGQGTTVTVSS
VL: EIVLTQSPDFQSVTPKEKVTITCRASQDIGSELHWYQQKPDQPPKLLIKYASHSTSGVPSRFSGSGSGTDFTLTINGLEAEDAGTYYCHQTDSLPYTFGPGTKVDIKRTVAAPDIQMTQSPSSLSASVGDRVTITCRASQGIRNYLNWYQQKPGKAPKLLIYYASNLEVGVPSRFSGSGSGTDYTLTISSLQPEDFATYYCQQDNRFPYTFGGGTKVEIKR
notes: DVD-Ig; also called DVD2191H; DVD2191L
